This experiment is described as follows: qHTS Assay for Lipid Storage Modulators in Drosophila S3 Cells.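 On cell number change: cells counted by Cell Tracker Red CMTPX staining in the red channel.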 As to conditions: BODIPY lipid droplet fluorescence, 18-24 h; for cell number change: measured here: cell count max response, cells fed with added oleic acid. The essentials:
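Drosophila S3 cells got compounds at several concentrations plus oleic acid (400 uM solution). Laser-scanning cytometry with 488 nm excitation read lipid droplets at 500-530 nm and cells at 575-640 nm. Percent activity was relative to 20 uM Triacsin C.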
(In general: In qHTS, concentration-response curves come from the screen itself.)

[1] abbreviates: measured here: lipid fluorescence (Fed channel) AC50, cells fed with added oleic acid.
The mark [2] stands for this setting: measured here: cell number channel AC50, cells fed with added oleic acid.

Some of the results follow. The main result of the screen is listed elsewhere. These columns were measured beside it and carry no call. The list favours compounds with an active or inconclusive main result. The note in brackets gives the kind of curve behind each potency; many fits are weak.

In general, AC50 refers to the concentration giving half of the maximal activity seen. Higher therefore signals activity only at high concentration. Take `CCC(Sc1nc2n[nH]c(C)c2c(=N)n1-c1ccc(C)c(Cl)c1)C(=O)N1CCOCC1` (stereo not drawn): the AC50 under setting [1] is 1.84 µM [rising, partial curve].

Turning to `COc1ccc(-c2cc(C(=O)N3CCN(c4ccccc4OC)CC3)no2)cc1`, the cell number change was 36.2%. Besides, the AC50 under setting [2] was 7.31 µM [rising, partial curve, poor fit]. Also, the AC50 under setting [1] was 29.1 µM [rising, partial curve].

Consider `CC(C)CC(NC(=O)C1CCC(C)CC1)C(=O)NCc1ccccn1` (stereo not drawn), for which the cell number change is -46.8%. The AC50 under setting [2] was 25.9 µM [falling, single point].

`COc1ccc(C(CNC(=O)c2cc(=O)[nH]c3ccccc23)N2CCCC2)cc1` (stereo not drawn): the cell number change amounted to 7.67%. Moreover, under setting [1], the AC50 was 2.59 µM [falling, single point].

On to `Nc1cc(S(=O)(=O)O)cc([N+](=O)[O-])c1O`, for which the cell number change was -108%. Further, under setting [2], the AC50 is 23.1 µM [falling, partial curve, poor fit].

Regarding `O=C(NCc1nnc(SCc2ccc(C(F)(F)F)cc2)n1-c1ccccc1)C12CC3CC(CC(C3)C1)C2`, the cell number change is -46.9%. Further, the AC50 under setting [2] is 18.4 µM [falling, single point]. The AC50 under setting [1] was 23.1 µM [falling, single point].

Regarding `COc1ccccc1NC(=O)c1cc(Cl)nnc1Cl`, the cell number change is -38.2%. For the same molecule, the AC50 under setting [2] is 16.4 µM [falling, single point].

On to `Cc1csc(N2CCc3ccccc32)n1`, for which the cell number change was -0.405%.

For `CSc1ccccc1NC(=O)CN(C)C(=O)Cc1c(F)cccc1Cl`, the cell number change is 13.3%.

In the case of `CCc1ccccc1Cn1c(=O)oc2cccnc21`, the cell number change came out at 13.3%. Besides, under setting [1], the AC50 was 1.16 µM [falling, partial curve, poor fit].

With `COc1ccccc1Sc1nc(-c2ccccn2)ncc1OC`, the cell number change amounted to 27.5%. For the same molecule, the AC50 under setting [1] was 29.1 µM [rising, single point].

For `CCOC(=O)C1CCCN(C2=NC(=O)/C(=C/c3ccc(OC)cc3OC)S2)C1` (stereo not drawn), the cell number change was -16.2%.

Turning to `O=C(c1ccco1)N(Cc1cccc(Cl)c1)C1CCS(=O)(=O)C1` (stereo not drawn), the cell number change amounted to 23.2%. Moreover, the AC50 under setting [1] is 4.61 µM [falling, single point].

`O=C(/C=C/c1ccc(F)cc1)NC(=S)N1CCN(c2ccccn2)CC1`: the cell number change turned out to be 26.7%. Also, the AC50 under setting [1] was 14.6 µM [rising, partial curve, poor fit].

Regarding `O/N=C(\c1ccccc1)c1nccc2ccccc12`, the cell number change was determined as 8.9%. Moreover, under setting [1], the AC50 is 29.1 µM [rising, single point].

For the molecule `Cc1ccccc1C(=O)NNC(=S)Nc1cccc(C(F)(F)F)c1`, the cell number change was -12.5%. Moreover, the AC50 under setting [1] was 1.16 µM [rising, partial curve, poor fit].

`COC(=O)c1cccc(NC(=O)CCc2ccccc2)c1`: under setting [1], the AC50 is 23.1 µM [rising, single point].

Turning to `CC(C(=O)NCC1CCCO1)N1C(=O)C2C3CC(C(Br)C3Br)C2C1=O` (stereo not drawn), the cell number change is -44.9%. Also, the AC50 under setting [2] was 10.3 µM [falling, partial curve, poor fit].

For the origin of these results see PubChem BioAssay AID2685 (National Center for Advancing Translational Sciences (NCATS), 2010).
